PubChem BioAssay AID743121 – NCATS, 2013

- Aim: 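Knock-downs that sensitise breast cancer cells to camptothecin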 (primary screen)
- Cells: MDA-MB-231 cells, a human breast cancer line
- Reagent: single siRNA against human genes, 20 nM siRNA (0.8 pmol per well)
- Timing: 120 h (drug added 48 h after transfection, read 72 h later)
- Challenge: camptothecin 20 nM (about EC30) for 72 h; vehicle 0.1% DMSO in parallel plates
- Read-out: 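Cell viability by ATP luminescence (CellTiter-Glo) as % of non-targeting siRNA wells, and the log2 ratio of viability without drug over viability with camptothecin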
- Direction: log2 vehicle/camptothecin viability: higher = stronger sensitisation to camptothecin; viability with camptothecin and viability without drug: higher = more viable cells
- Hit rule: 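Each gene scored by redundant siRNA activity (RSA) over its individual siRNA ratios; a gene is called active at p < 0.001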
This is one part, drawn at random, of about 26,000 reagents. 167 of all reagents (0.63%) count as active. 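Calls are per gene from RSA p-values that are not deposited; an individual active-marked siRNA can sensitise only weakly.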 The numbers tell different reagents against one gene apart.

| gene knocked down | siRNA no. | log2 vehicle/camptothecin viability | viability with camptothecin (% of control) | viability without drug (% of control) | Call |
| --- | --- | --- | --- | --- | --- |
| PTH2R (parathyroid hormone 2 receptor) | 1 | -0.198 | 54.9 | 47.8 | inactive |
| PTH2R (parathyroid hormone 2 receptor) | 2 | 0.53 | 13.2 | 19 | inactive |
| PTH2R (parathyroid hormone 2 receptor) | 3 | -0.577 | 111 | 74.3 | inactive |
| PTH2R (parathyroid hormone 2 receptor) | 4 | -0.362 | 52.2 | 40.6 | inactive |
| SEPTIN9 (septin 9) | 1 | -0.29 | 20 | 16.3 | inactive |
| SEPTIN9 (septin 9) | 2 | -0.575 | 99.5 | 66.8 | inactive |
| SEPTIN9 (septin 9) | 3 | -0.284 | 83.1 | 68.3 | inactive |
| SEPTIN9 (septin 9) | 4 | -0.314 | 110 | 88.8 | inactive |
| IL17C (interleukin 17C) | 1 | -0.398 | 46.7 | 35.5 | inactive |
| IL17C (interleukin 17C) | 2 | -0.257 | 114 | 95.6 | inactive |
| IL17C (interleukin 17C) | 3 | -0.254 | 91.1 | 76.4 | inactive |
| IL17C (interleukin 17C) | 4 | 0.046 | 78.5 | 81.1 | inactive |
| ITGA10 (integrin subunit alpha 10) | 1 | 0.105 | 88.3 | 95 | inactive |
| ITGA10 (integrin subunit alpha 10) | 2 | -0.297 | 113 | 92 | inactive |
| ITGA10 (integrin subunit alpha 10) | 3 | -0.00465 | 105 | 104 | inactive |
| ITGA10 (integrin subunit alpha 10) | 4 | -0.0267 | 82.2 | 80.7 | inactive |

The list goes on, starting with the last 6 of the part before.
| gene knocked down | siRNA no. | log2 vehicle/camptothecin viability | viability with camptothecin (% of control) | viability without drug (% of control) | Call |
| --- | --- | --- | --- | --- | --- |
| IL17C (interleukin 17C) | 3 | -0.254 | 91.1 | 76.4 | inactive |
| IL17C (interleukin 17C) | 4 | 0.046 | 78.5 | 81.1 | inactive |
| ITGA10 (integrin subunit alpha 10) | 1 | 0.105 | 88.3 | 95 | inactive |
| ITGA10 (integrin subunit alpha 10) | 2 | -0.297 | 113 | 92 | inactive |
| ITGA10 (integrin subunit alpha 10) | 3 | -0.00465 | 105 | 104 | inactive |
| ITGA10 (integrin subunit alpha 10) | 4 | -0.0267 | 82.2 | 80.7 | inactive |
| RGS20 (regulator of G protein signaling 20) | 1 | -0.291 | 118 | 96.1 | inactive |
| RGS20 (regulator of G protein signaling 20) | 2 | -0.348 | 119 | 93.8 | inactive |
| RGS20 (regulator of G protein signaling 20) | 3 | -0.265 | 84.9 | 70.7 | inactive |
| RGS20 (regulator of G protein signaling 20) | 4 | -0.263 | 61.5 | 51.2 | inactive |
| TTK (TTK protein kinase) | 1 | -0.726 | 60.3 | 36.4 | inactive |
| TTK (TTK protein kinase) | 2 | -0.251 | 51 | 42.8 | inactive |
| TTK (TTK protein kinase) | 3 | -0.63 | 39.5 | 25.5 | inactive |
| TTK (TTK protein kinase) | 4 | -0.752 | 30.7 | 18.2 | inactive |
| SERPINA6 (serpin family A member 6) | 1 | 0.275 | 39.4 | 47.7 | inactive |
| SERPINA6 (serpin family A member 6) | 2 | -0.32 | 66.8 | 53.5 | inactive |
| SERPINA6 (serpin family A member 6) | 3 | 0.0675 | 48.1 | 50.4 | inactive |
| SERPINA6 (serpin family A member 6) | 4 | 0.883 | 27.6 | 50.9 | inactive |
| RAPGEF1 (Rap guanine nucleotide exchange factor 1) | 1 | -0.507 | 54.7 | 38.5 | inactive |
| RAPGEF1 (Rap guanine nucleotide exchange factor 1) | 2 | -0.681 | 80.5 | 50.2 | inactive |
| RAPGEF1 (Rap guanine nucleotide exchange factor 1) | 3 | -0.389 | 75.5 | 57.6 | inactive |
| RAPGEF1 (Rap guanine nucleotide exchange factor 1) | 4 | -0.121 | 109 | 100 | inactive |
| RNF186 (ring finger protein 186) | 1 | 0.28 | 66.6 | 80.9 | inactive |
| RNF186 (ring finger protein 186) | 2 | 0.144 | 53.7 | 59.3 | inactive |
| RNF186 (ring finger protein 186) | 3 | -0.122 | 89.3 | 82.1 | inactive |
| RNF186 (ring finger protein 186) | 4 | -0.491 | 93.8 | 66.8 | inactive |
| NME2 (NME/NM23 nucleoside diphosphate kinase 2) | 1 | -0.107 | 69.4 | 64.4 | inactive |
| NME2 (NME/NM23 nucleoside diphosphate kinase 2) | 2 | 0.0285 | 77.9 | 79.5 | inactive |
| NME2 (NME/NM23 nucleoside diphosphate kinase 2) | 3 | -0.383 | 58.8 | 45.1 | inactive |
| NME2 (NME/NM23 nucleoside diphosphate kinase 2) | 4 | -0.233 | 69.8 | 59.4 | inactive |
| NME2 (NME/NM23 nucleoside diphosphate kinase 2) | 5 | -0.272 | 62.4 | 51.7 | inactive |
| NME2 (NME/NM23 nucleoside diphosphate kinase 2) | 6 | -0.044 | 57.2 | 55.5 | inactive |
| NME2 (NME/NM23 nucleoside diphosphate kinase 2) | 7 | -0.233 | 51.6 | 43.9 | inactive |
| TNNT1 (troponin T1, slow skeletal type) | 1 | -0.272 | 107 | 89 | inactive |
| TNNT1 (troponin T1, slow skeletal type) | 2 | -0.0565 | 94 | 90.3 | inactive |
| TNNT1 (troponin T1, slow skeletal type) | 3 | -0.456 | 66.6 | 48.6 | inactive |
